Data: US9487515B2, “Compounds modulating c-fms and/or c-kit activity and uses therefor” (Plexxikon Inc., priority 2006, dated 2016)
Some entries share one result that the patent states for a list of compounds.

These molecules were tested against Fms (UniProt P07333) (assay: Fms assays of Examples 40 or 41 (AlphaScreen kinase assays at 10 and 100 μM ATP, 33P-ATP filter assay, RAW264.7 pFMS and M-NFS-60 M-CSF-stimulated proliferation)). Conditions: in at least one of the Fms assays described in Examples 40 or 41.

IC50, < 1000 nM:
Fc1cc(F)cc(CNc2ncc(Cc3c[nH]c4ncccc34)cn2)c1 [P-0295, (3,5-Difluoro-benzyl)-[5-(1H-pyrrolo[2,3-b]pyridin-3-ylmethyl)-pyrimidin-2-yl]-amine]
Fc1ccc(F)c(CNc2ccc(Cc3c[nH]c4ncccc34)cn2)c1 [P-0296, (2,5-Difluoro-benzyl)-[5-(1H-pyrrolo[2,3-b]pyridin-3-ylmethyl)-pyridin-2-yl]-amine]
Cc1cnc2[nH]cc(Cc3ccc(NCc4cc(F)ccc4F)nc3)c2c1 [P-0297, (2,5-Difluoro-benzyl)-[5-(5-methyl-1H-pyrrolo[2,3-b]pyridin-3-ylmethyl)-pyridin-2-yl]-amine]
Fc1ccc(F)c(CNc2ccc(Cc3c[nH]c4ncc(Cl)cc34)cn2)c1 [P-0298, [5-(5-Chloro-1H-pyrrolo[2,3-b]pyridin-3-ylmethyl)-pyridin-2-yl]-(2,5-difluoro-benzyl)-amine]
N#Cc1cnc2[nH]cc(Cc3ccc(NCc4cc(F)ccc4F)nc3)c2c1 [P-0299, 3-[6-(2,5-Difluoro-benzylamino)-pyridin-3-ylmethyl]-1H-pyrrolo[2,3-b]pyridine-5-carbonitrile]
Fc1ccccc1CNc1ncc(Cc2c[nH]c3ncccc23)cn1 [P-0300, (2-Fluoro-benzyl)-[5-(1H-pyrrolo[2,3-b]pyridin-3-ylmethyl)-pyrimidin-2-yl]-amine]
Clc1ccccc1CNc1ncc(Cc2c[nH]c3ncccc23)cn1 [P-0301, (2-Chloro-benzyl)-[5-(1H-pyrrolo[2,3-b]pyridin-3-ylmethyl)-pyrimidin-2-yl]-amine]
FC(F)(F)c1ccccc1CNc1ncc(Cc2c[nH]c3ncccc23)cn1 [P-0302, [5-(1H-Pyrrolo[2,3-b]pyridin-3-ylmethyl)-pyrimidin-2-yl]-(2-trifluoromethyl-benzyl)-amine]
FC(F)(F)Oc1ccccc1CNc1ncc(Cc2c[nH]c3ncccc23)cn1 [P-0303, [5-(1H-Pyrrolo[2,3-b]pyridin-3-ylmethyl)-pyrimidin-2-yl]-(2-trifluoromethoxy-benzyl)-amine]
Fc1ccc(Cl)cc1CNc1ncc(Cc2c[nH]c3ncccc23)cn1 [P-0304, (5-Chloro-2-fluoro-benzyl)-[5-(1H-pyrrolo[2,3-b]pyridin-3-ylmethyl)-pyrimidin-2-yl]-amine]
Clc1ccc(CNc2ncc(Cc3c[nH]c4ncccc34)cn2)c(Cl)c1 [P-0305, (2,4-Dichloro-benzyl)-[5-(1H-pyrrolo[2,3-b]pyridin-3-ylmethyl)-pyrimidin-2-yl]-amine]
Fc1ccc(CNc2ncc(Cc3c[nH]c4ncccc34)cn2)c(F)c1 [P-0306, (2,4-Difluoro-benzyl)-[5-(1H-pyrrolo[2,3-b]pyridin-3-ylmethyl)-pyrimidin-2-yl]-amine]
Clc1ccc(CNc2ncc(Cc3c[nH]c4ncccc34)cn2)cc1 [P-0307, (4-Chloro-benzyl)-[5-(1H-pyrrolo[2,3-b]pyridin-3-ylmethyl)-pyrimidin-2-yl]-amine]
FC(F)(F)c1ccc(CNc2ncc(Cc3c[nH]c4ncccc34)cn2)cc1 [P-0308, [5-(1H-Pyrrolo[2,3-b]pyridin-3-ylmethyl)-pyrimidin-2-yl]-(4-trifluoromethyl-benzyl)-amine]
Fc1c(CNc2ncc(Cc3c[nH]c4ncccc34)cn2)cccc1C(F)(F)F [P-0309, (2-Fluoro-3-trifluoromethyl-benzyl)-[5-(1H-pyrrolo[2,3-b]pyridin-3-ylmethyl)-pyrimidin-2-yl]-amine]
Clc1ccc(Cl)c(CNc2ncc(Cc3c[nH]c4ncccc34)cn2)c1 [P-0310, (2,5-Dichloro-benzyl)-[5-(1H-pyrrolo[2,3-b]pyridin-3-ylmethyl)-pyrimidin-2-yl]-amine]
Fc1c(Cl)cccc1CNc1ncc(Cc2c[nH]c3ncccc23)cn1 [P-0311, (3-Chloro-2-fluoro-benzyl)-[5-(1H-pyrrolo[2,3-b]pyridin-3-ylmethyl)-pyrimidin-2-yl]-amine]
FC(F)Oc1ccccc1CNc1ncc(Cc2c[nH]c3ncccc23)cn1 [P-0312, (2-Difluoromethoxy-benzyl)-[5-(1H-pyrrolo[2,3-b]pyridin-3-ylmethyl)-pyrimidin-2-yl]-amine]
Clc1cccc(CNc2ncc(Cc3c[nH]c4ncccc34)cn2)c1Cl [P-0313, (2,3-Dichloro-benzyl)-[5-(1H-pyrrolo[2,3-b]pyridin-3-ylmethyl)-pyrimidin-2-yl]-amine]
Fc1cc(Cl)ccc1CNc1ncc(Cc2c[nH]c3ncccc23)cn1 [P-0314, (4-Chloro-2-fluoro-benzyl)-[5-(1H-pyrrolo[2,3-b]pyridin-3-ylmethyl)-pyrimidin-2-yl]-amine]
Fc1ccc(C(F)(F)F)c(CNc2ncc(Cc3c[nH]c4ncccc34)cn2)c1 [P-0315, (5-Fluoro-2-trifluoromethyl-benzyl)-[5-(1H-pyrrolo[2,3-b]pyridin-3-ylmethyl)-pyrimidin-2-yl]-amine]
Fc1ccc(CNc2ncc(Cc3c[nH]c4ncccc34)cn2)c(Cl)c1 [P-0316, (2-Chloro-4-fluoro-benzyl)-[5-(1H-pyrrolo[2,3-b]pyridin-3-ylmethyl)-pyrimidin-2-yl]-amine]
Cc1ccc(Cl)cc1CNc1ncc(Cc2c[nH]c3ncccc23)cn1 [P-0317, (5-Chloro-2-methyl-benzyl)-[5-(1H-pyrrolo[2,3-b]pyridin-3-ylmethyl)-pyrimidin-2-yl]-amine]
Cc1ccc(F)cc1CNc1ncc(Cc2c[nH]c3ncccc23)cn1 [P-0318, (5-Fluoro-2-methyl-benzyl)-[5-(1H-pyrrolo[2,3-b]pyridin-3-ylmethyl)-pyrimidin-2-yl]-amine]
Fc1cc(C(F)(F)F)ccc1CNc1ncc(Cc2c[nH]c3ncccc23)cn1 [P-0319, (2-Fluoro-4-trifluoromethyl-benzyl)-[5-(1H-pyrrolo[2,3-b]pyridin-3-ylmethyl)-pyrimidin-2-yl]-amine]
Fc1ccc(CNc2ncc(Cc3c[nH]c4ncccc34)cn2)c(C(F)(F)F)c1 [P-0320, (4-Fluoro-2-trifluoromethyl-benzyl)-[5-(1H-pyrrolo[2,3-b]pyridin-3-ylmethyl)-pyrimidin-2-yl]-amine]
N#Cc1cnc2[nH]cc(Cc3ccc(NCc4ccccc4OC(F)(F)F)nc3)c2c1 [P-0321, 3-[6-(2-Trifluoromethoxy-benzylamino)-pyridin-3-ylmethyl]-1H-pyrrolo[2,3-b]pyridine-5-carbonitrile]
FC(F)(F)Oc1ccccc1CNc1ccc(Cc2c[nH]c3ncccc23)cn1 [P-0322, [5-(1H-Pyrrolo[2,3-b]pyridin-3-ylmethyl)-pyridin-2-yl]-(2-trifluoromethoxy-benzyl)-amine]
CCOc1ccccc1CNc1ccc(Cc2c[nH]c3ncc(C#N)cc23)cn1 [P-0323, 3-[6-(2-Ethoxy-benzylamino)-pyridin-3-ylmethyl]-1H-pyrrolo[2,3-b]pyridine-5-carbonitrile]
Fc1cncc(CNc2ccc(Cc3c[nH]c4ncc(Cl)cc34)cn2)c1 [P-0324, [5-(5-chloro-1H-pyrrolo[2,3-b]pyridin-3-ylmethyl)-pyridin-2-yl]-(5-fluoro-pyridin-3-ylmethyl)-amine]
Fc1cnc2[nH]cc(Cc3ccc(NCc4ccccc4C(F)(F)F)nc3)c2c1 [P-0325, [5-(5-Fluoro-1H-pyrrolo[2,3-b]pyridin-3-ylmethyl)-pyridin-2-yl]-(2-trifluoromethyl-benzyl)-amine]
COc1cnc2[nH]cc(Cc3ccc(NCc4ccccc4C(F)(F)F)nc3)c2c1 [P-0326, [5-(5-Methoxy-1H-pyrrolo[2,3-b]pyridin-3-ylmethyl)-pyridin-2-yl]-(2-trifluoromethyl-benzyl)-amine]
Fc1cnc2[nH]cc(Cc3ccc(NCc4ccccc4Cl)nc3)c2c1 [P-0327, (2-Chloro-benzyl)-[5-(5-fluoro-1H-pyrrolo[2,3-b]pyridin-3-ylmethyl)-pyridin-2-yl]-amine]
COc1cnc2[nH]cc(Cc3ccc(NCc4ccccc4Cl)nc3)c2c1 [P-0328, (2-Chloro-benzyl)-[5-(5-methoxy-1H-pyrrolo[2,3-b]pyridin-3-ylmethyl)-pyridin-2-yl]-amine]
Fc1ccc(F)c(CNc2ccc(Cc3c[nH]c4ncc(F)cc34)cn2)c1 [P-0329, (2,5-Difluoro-benzyl)-[5-(5-fluoro-1H-pyrrolo[2,3-b]pyridin-3-ylmethyl)-pyridin-2-yl]-amine]
COc1cnc2[nH]cc(Cc3ccc(NCc4cc(F)ccc4F)nc3)c2c1 [P-0330, (2,5-Difluoro-benzyl)-[5-(5-methoxy-1H-pyrrolo[2,3-b]pyridin-3-ylmethyl)-pyridin-2-yl]-amine]
COc1ccc(CNc2ccc(Cc3c[nH]c4ncc(F)cc34)cn2)cn1 [P-0331, [5-(5-Fluoro-1H-pyrrolo[2,3-b]pyridin-3-ylmethyl)-pyridin-2-yl]-(6-methoxy-pyridin-3-ylmethyl)-amine]
COc1cnc2[nH]cc(Cc3ccc(NCc4ccc(OC)nc4)nc3)c2c1 [P-0332, (6-Methoxy-pyridin-3-ylmethyl)-[5-(5-methoxy-1H-pyrrolo[2,3-b]pyridin-3-ylmethyl)-pyridin-2-yl]-amine]
Fc1cnc2[nH]cc(Cc3ccc(NCc4c(F)cccc4F)nc3)c2c1 [P-0333, (2,6-Difluoro-benzyl)-[5-(5-fluoro-1H-pyrrolo[2,3-b]pyridin-3-ylmethyl)-pyridin-2-yl]-amine]
COc1cnc2[nH]cc(Cc3ccc(NCc4c(F)cccc4F)nc3)c2c1 [P-0334, (2,6-Difluoro-benzyl)-[5-(5-methoxy-1H-pyrrolo[2,3-b]pyridin-3-ylmethyl)-pyridin-2-yl]-amine]
Fc1nc(NCc2ccccc2Cl)ccc1Cc1c[nH]c2ncccc12 [P-0335, (2-chloro-benzyl)-[6-fluoro-5-(1H-pyrrolo[2,3-b]pyridin-3-ylmethyl)-pyridin-2-yl]-amine]
